Assay results taken from the supplement of paper PMC11438910.
Some of the results follow. Only a few entries rise above the background.

What was measured:
Assay in all cases: fluorescence intensity of antibody binding to polysaccharide-coupled beads; higher = stronger binding
[1] = molecular target: pneumococcal polysaccharide Pn28A
Protocol: (§1)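 Recombinant rhesus-murine chimeric IgG1 antibodies were tested against antigen-coupled MagPlex beads in a 96-plex Luminex direct immunoassay (dLIA). The beads carried pneumococcal capsular polysaccharides of 93 serotypes plus C-polysaccharides. Antibody was added at 0.1–12,500 ng/mL for 1 h, then PE anti-mouse IgG, and net MFI was read on a Bio-Plex 3D. Only the rhesus variable regions are printed; constant regions are murine IgG1/kappa/lambda, and the signal peptide is MGWSCIILFLVATATGVHS.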

[2] = molecular target: pneumococcal polysaccharide Pn28F
Protocol: as §1

[3] = molecular target: pneumococcal polysaccharide Pn29
Protocol: as §1

[4] = molecular target: pneumococcal polysaccharide Pn3
Protocol: as §1

[5] = molecular target: pneumococcal polysaccharide Pn31
Protocol: as §1

[6] = molecular target: pneumococcal polysaccharide Pn32A
Protocol: as §1

[7] = molecular target: pneumococcal polysaccharide Pn32F
Protocol: as §1

[8] = molecular target: pneumococcal polysaccharide Pn33A
Protocol: as §1

[9] = molecular target: pneumococcal polysaccharide Pn33B
Protocol: as §1

[10] = molecular target: pneumococcal polysaccharide Pn33C
Protocol: as §1

[11] = molecular target: pneumococcal polysaccharide Pn33D
Protocol: as §1

[12] = molecular target: pneumococcal polysaccharide Pn33F
Protocol: as §1

[13] = antibody concentration 2337.65 ng/mL
[14] = antibody concentration 12500 ng/mL
[15] = antibody concentration 0.1 ng/mL
[16] = antibody concentration 0.534724 ng/mL
[17] = antibody concentration 2.8593 ng/mL
[18] = antibody concentration 15.2894 ng/mL
[19] = antibody concentration 81.7561 ng/mL
[20] = antibody concentration 437.17 ng/mL

B1: 4-127.3 (protein)
chain 1: QVQLQESGPGLVKPSETLSLTCAVSGYSISSGYGWSWIRQPPGKGLEWIGYIGGSSGSTNYNPSLKSRVTVSKDTSKNQFSLKLSSVTAADTAVYYCARADYCTSTTCYGPNRFDVWGPGVLVTVSS
chain 2: QAAPTQSPSVSGSAGQSVTISCTGSSSDIGYYNGVSWYQHHPGKAPKLMIYEVSKRPSGVSNRFSGSKSGNTASLTISGLQAADEADYFCSSYAGSGTYIFGAGTRLTVL
In the case of B1, the fluorescence intensity [1, 13] is reported as 29.2 MFI, the fluorescence intensity [1, 14] is reported as 35.5 MFI and the fluorescence intensity [2, 15] is reported as 30.5 MFI. For the same binder, the fluorescence intensity [2, 16] was 31 MFI, the fluorescence intensity [2, 17] was 30 MFI and the fluorescence intensity [2, 18] was 30.5 MFI. It also gave a fluorescence intensity [2, 19] of 31 MFI, a fluorescence intensity [2, 20] of 31 MFI and a fluorescence intensity [2, 13] of 33.8 MFI. For the same binder, the fluorescence intensity [2, 14] was 58.2 MFI, the fluorescence intensity [3, 15] was 17.5 MFI and the fluorescence intensity [3, 16] was 15.2 MFI. It also gave a fluorescence intensity [3, 17] of 16.8 MFI, a fluorescence intensity [3, 18] of 17.5 MFI and a fluorescence intensity [3, 19] of 17 MFI. The fluorescence intensity [3, 20] was 19 MFI, the fluorescence intensity [3, 13] was 22 MFI and the fluorescence intensity [3, 14] was 57.5 MFI. It also gave a fluorescence intensity [4, 15] of 17 MFI, a fluorescence intensity [4, 16] of 24.5 MFI and a fluorescence intensity [4, 17] of 64.2 MFI. For the same binder, the fluorescence intensity [4, 18] was 256 MFI, the fluorescence intensity [4, 19] was 901 MFI and the fluorescence intensity [4, 20] was 2830 MFI. The fluorescence intensity [4, 13] was 8550 MFI, the fluorescence intensity [4, 14] was 6870 MFI and the fluorescence intensity [5, 15] was 15 MFI. The fluorescence intensity [5, 16] was 14.2 MFI, the fluorescence intensity [5, 17] was 14 MFI and the fluorescence intensity [5, 18] was 15.5 MFI. For the same binder, the fluorescence intensity [5, 19] was 14 MFI, the fluorescence intensity [5, 20] was 16 MFI and the fluorescence intensity [5, 13] was 18 MFI. It also gave a fluorescence intensity [5, 14] of 58 MFI, a fluorescence intensity [6, 15] of 18.5 MFI and a fluorescence intensity [6, 16] of 19 MFI. For the same binder, the fluorescence intensity [6, 17] was 16.5 MFI, the fluorescence intensity [6, 18] was 18 MFI and the fluorescence intensity [6, 19] was 18.5 MFI. It also gave a fluorescence intensity [6, 20] of 20.5 MFI, a fluorescence intensity [6, 13] of 21 MFI and a fluorescence intensity [6, 14] of 36.8 MFI. It also gave a fluorescence intensity [7, 15] of 28.5 MFI, a fluorescence intensity [7, 16] of 28.8 MFI and a fluorescence intensity [7, 17] of 30.5 MFI. It also gave a fluorescence intensity [7, 18] of 28.8 MFI, a fluorescence intensity [7, 19] of 29.5 MFI and a fluorescence intensity [7, 20] of 32.2 MFI. For the same binder, the fluorescence intensity [7, 13] was 35.8 MFI, the fluorescence intensity [7, 14] was 58 MFI and the fluorescence intensity [8, 15] was 19 MFI. For the same binder, the fluorescence intensity [8, 16] was 18.5 MFI, the fluorescence intensity [8, 17] was 18.8 MFI and the fluorescence intensity [8, 18] was 19 MFI. It also gave a fluorescence intensity [8, 19] of 18.5 MFI, a fluorescence intensity [8, 20] of 19.5 MFI and a fluorescence intensity [8, 13] of 35.2 MFI. It also gave a fluorescence intensity [8, 14] of 166 MFI, a fluorescence intensity [9, 15] of 19 MFI and a fluorescence intensity [9, 16] of 17.5 MFI. It also gave a fluorescence intensity [9, 17] of 18.2 MFI, a fluorescence intensity [9, 18] of 18.5 MFI and a fluorescence intensity [9, 19] of 19.5 MFI. The fluorescence intensity [9, 20] was 18 MFI, the fluorescence intensity [9, 13] was 20.2 MFI and the fluorescence intensity [9, 14] was 21.5 MFI. For the same binder, the fluorescence intensity [10, 15] was 20.2 MFI, the fluorescence intensity [10, 16] was 20.5 MFI and the fluorescence intensity [10, 17] was 20 MFI. The fluorescence intensity [10, 18] was 19.8 MFI, the fluorescence intensity [10, 19] was 19 MFI and the fluorescence intensity [10, 20] was 20.2 MFI. For the same binder, the fluorescence intensity [10, 13] was 21 MFI, the fluorescence intensity [10, 14] was 34.5 MFI and the fluorescence intensity [11, 15] was 16 MFI. For the same binder, the fluorescence intensity [11, 16] was 17 MFI, the fluorescence intensity [11, 17] was 17 MFI and the fluorescence intensity [11, 18] was 17 MFI. It also gave a fluorescence intensity [11, 19] of 16.5 MFI, a fluorescence intensity [11, 20] of 16.2 MFI and a fluorescence intensity [11, 13] of 18 MFI. The fluorescence intensity [11, 14] was 21.2 MFI, the fluorescence intensity [12, 15] was 13.2 MFI and the fluorescence intensity [12, 16] was 13.5 MFI. The fluorescence intensity [12, 17] was 12.5 MFI, the fluorescence intensity [12, 18] was 13 MFI and the fluorescence intensity [12, 19] was 14 MFI. The fluorescence intensity [12, 20] was 15 MFI, the fluorescence intensity [12, 13] was 20.5 MFI and the fluorescence intensity [12, 14] was 78.5 MFI.
